Values of other authors in paper PMC3063246, “Corticotropin Releasing Factor-Induced CREB Activation in Striatal Neurons Occurs via a Novel Gβγ Signaling Pathway” (PLoS ONE, 2011).

Tested on: depolarization-induced CREB phosphorylation
Set-up: method as in 3 sources, ref 36 = [36]; PMID 11226322; doi:10.1073/pnas.051634198; 36 Wu GY Deisseroth K Tsien RW 2001 Activity-dependent CREB phosphorylation: convergence of a fast, sensitive calmodulin kinase pathway and a slow, less sensitive mitogen-activated protein kinase path ||| ref [36] (a number printed in a supplementary file, which may have a reference list of its own: not looked up in the article's list) ||| ref [71] (a number printed in a supplementary file, which may have a reference list of its own: not looked up in the article's list)
Conditions: 5 mM as printed; cited from earlier work

COC(=O)C1=C(C)NC(C)=C(C(=O)OC)C1c1ccccc1[N+](=O)[O-] [nifedipine]
effect on depolarization-induced pCREB: L-type Calcium Channel (5 mM prevents depolarization-induced pCREB)
